Reference: publication doi:10.1101/2025.06.25.661491
Results are given in words; binding and its absence hold for the method and conditions named. Binding seen in cells or lysates may run through a third protein. Some binding calls cover weakened binding; strength is not graded here.

Sequences of proteins named here, by UniProt entry; tags and fusion partners are left off. Residues count along the entry.
UniProt P14334, 20-183: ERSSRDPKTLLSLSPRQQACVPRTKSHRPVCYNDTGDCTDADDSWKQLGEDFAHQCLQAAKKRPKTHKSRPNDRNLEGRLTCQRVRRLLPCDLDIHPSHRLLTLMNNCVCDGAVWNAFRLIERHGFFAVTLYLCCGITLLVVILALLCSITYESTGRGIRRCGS
UniProt P27797, 18-417: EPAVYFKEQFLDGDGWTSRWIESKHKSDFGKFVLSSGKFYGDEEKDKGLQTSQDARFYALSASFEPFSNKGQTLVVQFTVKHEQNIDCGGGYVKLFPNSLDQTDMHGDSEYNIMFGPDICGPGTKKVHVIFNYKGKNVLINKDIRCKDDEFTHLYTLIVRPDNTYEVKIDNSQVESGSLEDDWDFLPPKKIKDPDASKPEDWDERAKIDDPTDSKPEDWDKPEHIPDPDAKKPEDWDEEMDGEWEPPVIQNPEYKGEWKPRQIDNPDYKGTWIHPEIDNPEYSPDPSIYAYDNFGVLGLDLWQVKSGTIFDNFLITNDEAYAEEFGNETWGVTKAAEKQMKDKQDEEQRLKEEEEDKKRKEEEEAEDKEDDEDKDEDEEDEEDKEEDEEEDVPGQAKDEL
UniProt P61769, 21-119: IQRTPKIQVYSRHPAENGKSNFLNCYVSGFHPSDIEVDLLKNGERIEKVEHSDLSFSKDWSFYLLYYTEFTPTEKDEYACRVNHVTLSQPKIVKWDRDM

Target: US6 fused at its C terminus with a streptavidin-binding peptide (US6^SBP) (human cytomegalovirus (HCMV)) (UniProt P14334)
Test: pull-down

Row | Substance | binding
1 | calreticulin (from UniProt P27797 18-417) | binds
2 | β2-microglobulin (from UniProt P61769 21-119) | binds
